Results are given in words; binding and its absence hold for the method and conditions named. Some binding calls cover weakened binding; strength is not graded here.
Assays:
[1] = target: human BLyS (full length, arginine 132 mutated to histidine) on CHO-K1 cells (human) (UniProt Q9Y275); experiment: flow cytometry (FACS) on CHO-K1 hBLyS cells, Alexa 488 secondary antibody
[2] = target: cynomolgus BLyS (full length, arginine 132 mutated to histidine) on CHO-K1 cells (cynomolgus); experiment: FACS on CHO-K1-cynoBLyS cells
[3] = target: cynomolgus BLyS (full length, arginine 132 mutated to histidine) on CHO-K1 cells (cynomolgus); experiment: flow cytometry (FACS) on CHO-K1 cynoBLyS cells, Alexa 488 secondary antibody
[4] = target: human BLyS (full length, arginine 132 mutated to histidine) on CHO-K1 cells (human) (UniProt Q9Y275); experiment: FACS on CHO-K1-hBLyS cells
mouse BLyS protein = mouse BLyS protein (mouse, UniProt Q9WU72 69-309); experiment: told from the mouse B lymphocyte proliferation assay with mouse BLyS (functional)

Amino acid sequences for entries named in this document (tags omitted). A change or cut given only in a name is not applied to a line headed by its entry.
UniProt Q9Y275: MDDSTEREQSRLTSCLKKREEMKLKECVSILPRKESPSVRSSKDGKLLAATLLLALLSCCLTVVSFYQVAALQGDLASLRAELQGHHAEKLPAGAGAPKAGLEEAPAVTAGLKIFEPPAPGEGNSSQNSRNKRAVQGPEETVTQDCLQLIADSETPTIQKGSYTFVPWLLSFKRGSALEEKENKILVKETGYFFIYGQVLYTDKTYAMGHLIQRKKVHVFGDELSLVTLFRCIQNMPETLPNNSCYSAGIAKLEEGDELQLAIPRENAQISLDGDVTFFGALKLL

Measured: binding

B1: 97A3C2H4 (antibody, V domains shown)
VH: EVKLVESGGGLVQPGGSLKLSCAASGFTFSTYTMSWVRQTPEKRLEWVAYISYGGGSTSYPDTVKGRFTISRDNAKNTLYLQMSSLKSEDTAIYYCTRHVTVVENSMDYWGQGTSVTVSS
VL: DILLTQSPDILSVSPGERVSFSCRASQSIGTSIHWYQQRTNGSPRLLIKYVSESFSGTPSRFSGSGSGTAFTLTINSVESEDIADYYCQQTHSWPWTFGGGTKLEIK
not listed: mouse BLyS protein
binds: all other assays above

B2: L1D12 (antibody, human IgG1, V domains shown)
VH: QVQLVQSGGGLVQPGGSLRLSCAASGFTVSSNYMSWVRQAPGKGLEWVSVIYSGGSTYYADSVKGRFTISRDNSKNTLYLQMNSLRAEDTAVYYCARGFHDILTGYGMDVWGQGTTVTVSS
VL: SSELTQDPAVSVALGQTVRITCQGDSLRNYYAGWYQQKPGQAPVLVIYGKNNRPSGIPDRFSGSSSGNTASLTITGTQAEDEADYYCSSRDNSGTHLVEFGGGTKLTVL
not listed: mouse BLyS protein
binds: all other assays above

B3: 111D10D6G3 (antibody, V domains shown)
VH: QVQLQQPGAELVKPGASVKMSCKASGYTFTRHWITWVKQRPGQGLEWIGDIFPGSGSINYNEKFKSEATLTVEKSSSTAYMQLSSLTSEDSAVYYCARGDVDVWGTGTTVTVSS
VL: DIQMTQSPSSLSASLGERVSLTCRASQEIRGYLSWLQQKPNGTIKRLIYAASTLDSGVPKRFSATRSGSDFSLTISSLESEDFADYYCLQYASYPFTFGSGTKLEIK
not listed: mouse BLyS protein
binds: all other assays above

B4: 20D1B6E9E5 (antibody, V domains shown)
VH: EVQLQQSVAELVRPGASVKLSCTASDFNIKNTYIHWVKQRPEQGLEWIGRIDPVNGNTKYAPKFQDKATIIVDTYSNTAYLQLSSLASEDTAVYYCARWPITTIVATDWYFDVWGTGTTVTVSS
VL: DVLMTQTQLALPVRLGEQASISCRSSQSIVNSNGNTYLEWYLQKPGQSPKLLIYKVSNRFSGVPDRFSGSGSGTDFTLKISRVEAEDLGVYYCFQGSHVPWTFGGGTKLEIK
not listed: mouse BLyS protein
binds: all other assays above

B5: L9G7 (antibody, human IgG1, V domains shown)
VH: QIQLVQSGAEVKKPGASVKVSCKASGYTFTSYGISWVRQAPGQGLEWMGWISAYNGNTNYAQKLQGRVTMTTDTSTSTAYMELRSLRSDDTAVYYCARTYYDILTGYYYYGMDVWGQGTTVTVSS
VL: EIVLTQSPGTLSLSPGERATLSCRTSQSVDTYLAWYQQKPGQAPRLLIYDASNRATGIPARFSGSGSGTDFTLTISSLEPEDFAVYYCQQRSNWPLTFGGGTKVEIK
binds: all assays above

B6: 35E6F7C3 (antibody, V domains shown)
VH: EVQLQQSGAELVKPGASVKLSCTAAGFNIQDTYIHWVKQRPEQGLEWIGRIDPANANTVYDPKFQGKATITADTSSNTAYLQVSSLTSEDTAVYYCASPVITAGFAYWGQGTLVTVSA
VL: QIVLTQSPAIMSASPGEKVTMTCGASSSVNYVHWYQQKSGTSPKRWIYDTSKLASGVPARFSGSGSGTSYSLTISSMEAEDAATYYCQQWTRSPLTFGAGTKVELK
not listed: mouse BLyS protein
binds: all other assays above

B7: 78C11D2D12 (antibody, V domains shown)
VH: QVQLQQSGAELVRPGTSVKISCKASGYAFTNYWLGWVKQRPGHGLEWIGDIYPGSGNTYYNEKFKGKATLTADKSSSTAYMQLSSLTSEDSAVFFCAAYLYAMDYWGQGTSVTVSS
VL: QIVLTQSPAIMSASPGEKVTITCSASSSVSYMHWFQQKPGTSPKLWIYSASNLASGVPARFSGSGSGTSYSLTISRMEAEDAATYYCQQRGSYPFTFGSGTKLEIK
not listed: mouse BLyS protein
binds: all other assays above

B8: 89A2G5E7 (antibody, V domains shown)
VH: QVQLKESGPGLVAPSQSLSITCTVSGLSLNSHDISWIRQPPGKGLEWLGVIWSGGGTKYNSAFMSRLSISKDNSKSQVFLKMNSLHTDDTAIYYCVRTPSMITYSAMDYWGQGTSVTVSS
VL: EIVLTQSPALMAASPGEKVTITCSVSSSISSRNLHWYQQKSQTSPKAWIHATSNLASGVPVRFSGSGSGTSYSLTISSMEAEDAATYYCQQWSSYPLTFGSGTKLEIK
not listed: mouse BLyS protein
binds: all other assays above

B9: 67A2E1D10 (antibody, V domains shown)
VH: EVQLQQSGAELVKPGASVKLSCTASGFNIKNYYMHWVKQRTEEGLEWIGRIDPEDGETKYAPKFQAKATITADTSSNTAYLQLSSLTSEDTAVYFCARKGYYGNYGAWFAYWGQGTLVTVSA
VL: DIQMTQSPASLSVSVGETVTITCRASEDLYSNLAWYQQKQGKSPQLLVYAATFLADGVPSRFSGSGSGTQYSLKINSLQSEDFGNYYCQHFWGTPPTFGGGTKLEIK
not listed: mouse BLyS protein
binds: all other assays above

B10: 97E7B3F2 (antibody, V domains shown)
VH: EVQLQQSGPELVKSGASVKISCKASGYTFTDHKMHWVKQSHGKSLEWIGYISPYNGGTGYNQKFKSKVTLTVDISSSTAYMELRSLTSEDSAVYYCARWGFYDVMDSWGQGTSVTVSS
VL: DVLLTQTPLSLPVSLGDQASISCRSSQTIVHIIGDTYLEWYLQKPGQSPKLLIYKVSNRFSGVPDRFSGSGAGTDFTLKISRVEAEDLGVYYCFQGSHVPRTFGGGTKLEIK
not listed: mouse BLyS protein
binds: all other assays above

B11: 8E7D9C7F5 (antibody, V domains shown)
VH: QVQLQQSGVELARPGASVKLSCKASGYTFTSYGISWVKQRTGQALEWIGEIYPRSGNTYYNEKFKGKATLTADKSSSTAYMELRSLTSEDSAVYFCARSGPITTLVATDYGMDYWGQGTSVTVSS
VL: DIVLTQSPASLAVSLGQRATISCRASKSVSTSSYSYMHWYQQKPGQPPKLLIKFASNLESGVPARFSGSGSGTDFTLNIHPVEEEDAATYYCQHSREFPYTFGGGTKLEIK
not listed: mouse BLyS protein
binds: all other assays above

B12: 93C6F10D3 (antibody, V domains shown)
VH: EVQLVESGGGLVTPGGSLKLSCVASGFAFSTYGMSWVRQTPERRLEWVAYISGGGGSIYYPDSVKGRFTISRDNAKNILYLQMSSLKSEDTAMYHCTRHPDLLLRYDYALDHWGQGTSVTVSS
VL: DIQMTQSPASLSASVGETVTITCRASENIHIYLAWYQQKQGKSPQLLVYNGKTLADGVPSRFSGSGSGTQYSLKINTLQPEDFGNYYCQHFWNSTWTFGGGTKLEIK
not listed: mouse BLyS protein
binds: all other assays above
